Experimental data from patent US20050148506A1.
Results are given in words; binding and its absence hold for the method and conditions named. For some of these results: Binding seen in cells or lysates may run through a third protein. Some entries that bind do so weakly or less than the wild type. For some of these results: Where a sequence is shown, tags or fusion partners need not be part of it.

Amino acid sequences for entries named in this document (tags omitted). A change or cut given only in a name is not applied to a line headed by its entry. Residues count along the entry.
UniProt P56703, residues 22-355: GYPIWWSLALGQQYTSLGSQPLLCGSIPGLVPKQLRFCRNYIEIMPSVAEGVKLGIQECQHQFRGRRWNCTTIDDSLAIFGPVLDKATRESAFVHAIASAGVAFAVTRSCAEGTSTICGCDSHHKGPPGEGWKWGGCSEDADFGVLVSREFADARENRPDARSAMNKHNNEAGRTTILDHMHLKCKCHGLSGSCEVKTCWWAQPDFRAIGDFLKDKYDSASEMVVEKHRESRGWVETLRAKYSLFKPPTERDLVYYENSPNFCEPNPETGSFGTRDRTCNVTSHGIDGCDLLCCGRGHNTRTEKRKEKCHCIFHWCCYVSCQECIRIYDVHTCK
UniProt Q01974: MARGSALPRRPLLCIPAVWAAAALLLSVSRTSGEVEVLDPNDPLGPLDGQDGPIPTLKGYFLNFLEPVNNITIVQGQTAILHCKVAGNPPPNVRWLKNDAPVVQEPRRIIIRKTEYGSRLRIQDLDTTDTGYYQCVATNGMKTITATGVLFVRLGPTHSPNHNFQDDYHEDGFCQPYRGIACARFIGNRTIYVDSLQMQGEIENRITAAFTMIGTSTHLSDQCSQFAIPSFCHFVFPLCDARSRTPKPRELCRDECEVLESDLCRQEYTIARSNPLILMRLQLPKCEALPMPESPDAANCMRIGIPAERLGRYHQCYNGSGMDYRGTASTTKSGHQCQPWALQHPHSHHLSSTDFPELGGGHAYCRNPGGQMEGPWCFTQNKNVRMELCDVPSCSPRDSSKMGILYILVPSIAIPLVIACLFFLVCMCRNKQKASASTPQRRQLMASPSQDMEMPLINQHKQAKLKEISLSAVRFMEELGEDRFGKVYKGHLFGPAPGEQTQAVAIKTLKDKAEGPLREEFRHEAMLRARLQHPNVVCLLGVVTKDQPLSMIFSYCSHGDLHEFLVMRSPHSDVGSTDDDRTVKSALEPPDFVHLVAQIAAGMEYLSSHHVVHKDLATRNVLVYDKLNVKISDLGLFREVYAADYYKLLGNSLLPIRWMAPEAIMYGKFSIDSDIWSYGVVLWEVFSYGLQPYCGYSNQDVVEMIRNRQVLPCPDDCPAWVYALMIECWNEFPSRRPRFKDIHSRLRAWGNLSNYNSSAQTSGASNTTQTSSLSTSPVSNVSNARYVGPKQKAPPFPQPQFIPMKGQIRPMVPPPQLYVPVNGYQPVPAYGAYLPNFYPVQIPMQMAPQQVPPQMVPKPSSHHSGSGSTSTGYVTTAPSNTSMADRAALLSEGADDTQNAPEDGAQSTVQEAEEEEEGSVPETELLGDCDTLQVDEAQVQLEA

Experiments:
[1] = target: T1, HA epitope-tagged human Wnt-1 (Wnt-1-HA) (human) (UniProt P04628); assay: co-immunoprecipitation with anti-flag from COS7 lysates, anti-HA immunoblot (FIG. 10 legend)
T1 sequence (looked up): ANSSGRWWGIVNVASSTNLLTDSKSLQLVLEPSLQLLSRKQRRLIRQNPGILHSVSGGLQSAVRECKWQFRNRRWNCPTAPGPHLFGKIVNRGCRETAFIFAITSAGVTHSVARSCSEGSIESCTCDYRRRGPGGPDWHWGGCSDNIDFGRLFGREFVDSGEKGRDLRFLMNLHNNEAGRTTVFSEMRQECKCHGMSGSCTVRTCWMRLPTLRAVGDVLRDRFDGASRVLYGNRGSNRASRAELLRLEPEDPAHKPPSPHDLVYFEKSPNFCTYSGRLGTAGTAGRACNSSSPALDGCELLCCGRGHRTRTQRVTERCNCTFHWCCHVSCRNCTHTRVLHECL

[2] = target: HA epitope-tagged human Wnt-3 (Wnt-3-HA) (human) (UniProt P56703); assay: as above
[3] = target: T1, HA epitope-tagged human Wnt-1 (Wnt-1-HA) (human); assay: co-immunoprecipitation with anti-flag from lysates of co-transfected cells, anti-HA immunoblot
[4] = target: HA epitope-tagged human Wnt-3 (Wnt-3-HA) (human) (UniProt P56703); assay: as above
[5] = target: T2, V5- and his-tagged intracellular domain of human Notch2 (Notch2IC-V5-his) (human) (UniProt Q04721); assay: co-immunoprecipitation with anti-flag from U2OS lysates, anti-his immunoblot (FIG. 16 legend)
T2 sequence (looked up): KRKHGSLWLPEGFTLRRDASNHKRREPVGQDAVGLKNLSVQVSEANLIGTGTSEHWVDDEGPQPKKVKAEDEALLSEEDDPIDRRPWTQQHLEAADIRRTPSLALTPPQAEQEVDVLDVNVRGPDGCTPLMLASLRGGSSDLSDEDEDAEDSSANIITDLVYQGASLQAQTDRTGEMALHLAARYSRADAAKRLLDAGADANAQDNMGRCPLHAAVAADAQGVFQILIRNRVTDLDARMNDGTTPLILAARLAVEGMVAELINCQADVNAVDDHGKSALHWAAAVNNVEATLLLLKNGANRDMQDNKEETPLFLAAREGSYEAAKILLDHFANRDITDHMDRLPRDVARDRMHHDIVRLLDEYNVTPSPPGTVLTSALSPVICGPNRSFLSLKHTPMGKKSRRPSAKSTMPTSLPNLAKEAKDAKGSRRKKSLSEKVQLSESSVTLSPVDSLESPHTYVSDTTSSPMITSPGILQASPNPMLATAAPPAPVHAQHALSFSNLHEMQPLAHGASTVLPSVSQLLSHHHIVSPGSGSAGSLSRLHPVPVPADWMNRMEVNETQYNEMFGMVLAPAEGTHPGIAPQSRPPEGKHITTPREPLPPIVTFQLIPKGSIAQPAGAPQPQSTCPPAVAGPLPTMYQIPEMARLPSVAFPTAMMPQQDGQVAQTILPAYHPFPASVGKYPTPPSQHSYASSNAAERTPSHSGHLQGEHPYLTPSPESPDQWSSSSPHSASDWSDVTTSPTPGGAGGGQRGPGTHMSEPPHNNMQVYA

[6] = target: T1, HA epitope-tagged human Wnt-1 (Wnt-1-HA) (human); assay: co-immunoprecipitation with anti-flag from COS7 lysates, anti-HA immunoblot; panel of ten HA-tagged Wnts
[7] = target: HA epitope-tagged human Wnt-3 (Wnt-3-HA) (human) (UniProt P56703); assay: as above
[8] = target: T1, HA epitope-tagged human Wnt-1 (Wnt-1-HA) (human); assay: co-immunoprecipitation with anti-flag from lysates of co-transfected COS-7 or U2OS cells, anti-HA immunoblot
[9] = target: HA epitope-tagged human Wnt-3 (Wnt-3-HA) (human) (UniProt P56703); assay: as above
[10] = target: T2, V5- and his-tagged intracellular domain of human Notch2 (Notch2IC-V5-his) (human); assay: co-immunoprecipitation on M2 flag affinity agarose from lysates of co-transfected U2OS cells, immunoblot for the Notch2IC tags
NOTCH2 protein = NOTCH2 protein (UniProt Q04721); assay: listed as specifically immunoprecipitated by Ror2-flag: anti-flag agarose immunoprecipitation from U2OS extracts, gel slices, MS/MS

Measured: binding

Flag-tagged Ror2 'kinase-dead' mutant (Ror2KD-flag) (from UniProt Q01974 34-943) (receptor)
binds: [1] | [2] | [3] | [4]

Flag-tagged human Ror2 (Ror2-flag) (from UniProt Q01974 34-943) (receptor)
not listed: [3] | [4]
binds: all other assays above
